Some of the results follow.
Key:
Assay in all cases: log2 fold change, soluble protein after heating vs DMSO (PISA); higher = thermal stabilisation; K562 lysate, 10 uM; active = over 0.2 and 3.5 SD of the protein, either way, in both replicates (recomputed)
[1] = compound: C1=CC=C(C=C1)[C@H](COC2=CC3=C(C=C2)NC(=O)N3)NC(=O)C4=CC=CN(C4=O)CC5=CC(=C(C=C5)F)F
How it was run: (§1)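 Values give the log-two fold change in thermal stability against solvent controls, from duplicates. Crude K562 extract at 1 mg/mL protein, made by dounce homogenisation in PBS pH 7.4 with 1 mM MgCl2, was treated with 10 μM compound for 30 min. After 3 min heating across 48°C-58°C, aliquots were pooled, adjusted to 0.5% NP-40 at 4°C and centrifuged at 21,000xg for 90 min. The supernatant was measured by TMTpro 16plex LC-MS/MS with channel sums equalised.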

Protein sequences, listed by entry. Tags and fused reporters are not part of them. Lines headed by an entry give the natural chain unless they say otherwise; changes in a name come on top.
UniProt Q5HYK3: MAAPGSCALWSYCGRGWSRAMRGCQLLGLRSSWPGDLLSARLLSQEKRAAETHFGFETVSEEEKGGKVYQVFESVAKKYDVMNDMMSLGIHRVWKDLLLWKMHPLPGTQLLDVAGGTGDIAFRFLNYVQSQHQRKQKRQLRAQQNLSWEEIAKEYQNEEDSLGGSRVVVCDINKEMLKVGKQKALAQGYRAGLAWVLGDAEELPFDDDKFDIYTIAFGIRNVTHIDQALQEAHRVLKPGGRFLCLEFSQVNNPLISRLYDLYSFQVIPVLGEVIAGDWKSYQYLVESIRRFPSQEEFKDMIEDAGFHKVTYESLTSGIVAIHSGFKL
UniProt Q96D53: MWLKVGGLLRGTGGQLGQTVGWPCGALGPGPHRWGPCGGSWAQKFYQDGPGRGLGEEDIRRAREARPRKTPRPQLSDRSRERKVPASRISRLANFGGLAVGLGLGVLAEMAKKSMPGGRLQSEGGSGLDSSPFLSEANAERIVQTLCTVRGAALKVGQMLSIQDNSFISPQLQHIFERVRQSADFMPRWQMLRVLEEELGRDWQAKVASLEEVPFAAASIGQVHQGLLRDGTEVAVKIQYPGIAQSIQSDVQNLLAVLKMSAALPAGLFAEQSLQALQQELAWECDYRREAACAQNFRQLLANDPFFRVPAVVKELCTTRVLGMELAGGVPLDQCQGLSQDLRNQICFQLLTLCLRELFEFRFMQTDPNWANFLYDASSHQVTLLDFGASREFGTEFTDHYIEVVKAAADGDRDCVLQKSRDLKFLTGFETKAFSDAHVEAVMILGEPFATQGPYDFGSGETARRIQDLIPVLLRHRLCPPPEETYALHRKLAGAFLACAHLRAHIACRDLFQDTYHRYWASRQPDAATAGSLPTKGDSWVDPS
UniProt Q9Y6G5, whole entry, looked up: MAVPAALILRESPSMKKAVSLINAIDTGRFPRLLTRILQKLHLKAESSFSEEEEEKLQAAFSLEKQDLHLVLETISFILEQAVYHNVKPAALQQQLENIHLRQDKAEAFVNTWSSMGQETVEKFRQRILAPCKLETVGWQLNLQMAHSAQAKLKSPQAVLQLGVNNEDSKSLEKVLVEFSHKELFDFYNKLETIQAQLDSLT
UniProt P15954, whole entry, looked up: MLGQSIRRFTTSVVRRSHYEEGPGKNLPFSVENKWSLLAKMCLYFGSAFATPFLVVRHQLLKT
UniProt Q8N4Y2: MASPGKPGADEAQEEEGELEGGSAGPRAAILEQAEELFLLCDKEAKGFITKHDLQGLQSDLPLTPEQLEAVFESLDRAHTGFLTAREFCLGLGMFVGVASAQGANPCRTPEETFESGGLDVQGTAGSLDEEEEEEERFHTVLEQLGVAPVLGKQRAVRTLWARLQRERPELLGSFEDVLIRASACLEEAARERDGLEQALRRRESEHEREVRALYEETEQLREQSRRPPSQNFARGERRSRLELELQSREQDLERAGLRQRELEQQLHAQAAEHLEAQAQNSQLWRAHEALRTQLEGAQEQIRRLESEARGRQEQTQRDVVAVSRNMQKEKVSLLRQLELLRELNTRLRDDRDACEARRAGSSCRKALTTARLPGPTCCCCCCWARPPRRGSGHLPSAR
UniProt P02452, whole entry, looked up: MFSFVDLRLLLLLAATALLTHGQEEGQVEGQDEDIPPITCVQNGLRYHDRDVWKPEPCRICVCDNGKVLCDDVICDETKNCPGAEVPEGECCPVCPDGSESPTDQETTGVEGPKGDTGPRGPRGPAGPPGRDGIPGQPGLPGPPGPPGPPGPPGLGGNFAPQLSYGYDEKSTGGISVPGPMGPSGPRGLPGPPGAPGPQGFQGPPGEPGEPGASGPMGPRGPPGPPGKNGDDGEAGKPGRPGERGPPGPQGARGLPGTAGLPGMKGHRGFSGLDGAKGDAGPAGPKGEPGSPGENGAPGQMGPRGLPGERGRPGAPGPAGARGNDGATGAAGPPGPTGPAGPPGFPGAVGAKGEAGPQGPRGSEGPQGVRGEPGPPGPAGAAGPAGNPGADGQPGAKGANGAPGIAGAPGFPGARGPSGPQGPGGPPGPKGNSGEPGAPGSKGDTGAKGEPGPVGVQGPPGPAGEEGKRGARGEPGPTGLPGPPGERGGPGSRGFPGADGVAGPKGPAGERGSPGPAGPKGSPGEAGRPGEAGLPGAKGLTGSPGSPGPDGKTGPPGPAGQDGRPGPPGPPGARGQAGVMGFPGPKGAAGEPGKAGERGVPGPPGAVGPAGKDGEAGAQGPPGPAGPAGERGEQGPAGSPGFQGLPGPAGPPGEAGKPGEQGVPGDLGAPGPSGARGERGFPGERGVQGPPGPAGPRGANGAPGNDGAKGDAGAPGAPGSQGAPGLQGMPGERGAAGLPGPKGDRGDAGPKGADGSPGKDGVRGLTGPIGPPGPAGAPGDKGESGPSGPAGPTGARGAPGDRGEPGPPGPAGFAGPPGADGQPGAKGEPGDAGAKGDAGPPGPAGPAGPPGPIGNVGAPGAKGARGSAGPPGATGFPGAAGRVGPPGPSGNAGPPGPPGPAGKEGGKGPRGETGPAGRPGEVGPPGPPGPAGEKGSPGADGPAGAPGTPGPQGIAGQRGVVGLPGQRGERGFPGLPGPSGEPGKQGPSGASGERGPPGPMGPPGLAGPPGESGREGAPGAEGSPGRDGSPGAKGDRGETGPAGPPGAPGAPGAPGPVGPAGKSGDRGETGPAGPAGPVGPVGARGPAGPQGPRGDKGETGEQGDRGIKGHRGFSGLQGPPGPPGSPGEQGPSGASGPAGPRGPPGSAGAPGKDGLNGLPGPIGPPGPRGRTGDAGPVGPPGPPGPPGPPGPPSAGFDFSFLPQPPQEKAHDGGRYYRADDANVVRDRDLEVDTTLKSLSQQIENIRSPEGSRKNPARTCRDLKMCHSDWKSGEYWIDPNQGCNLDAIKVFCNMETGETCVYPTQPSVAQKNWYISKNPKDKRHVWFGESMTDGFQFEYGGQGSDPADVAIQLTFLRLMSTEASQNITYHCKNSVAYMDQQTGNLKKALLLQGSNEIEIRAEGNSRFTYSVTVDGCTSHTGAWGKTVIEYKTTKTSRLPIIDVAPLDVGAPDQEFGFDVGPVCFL
UniProt O14810: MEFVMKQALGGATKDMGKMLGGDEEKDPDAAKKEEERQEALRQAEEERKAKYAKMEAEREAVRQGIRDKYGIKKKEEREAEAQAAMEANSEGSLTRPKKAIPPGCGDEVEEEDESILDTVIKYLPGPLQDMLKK
UniProt P09669, whole entry, looked up: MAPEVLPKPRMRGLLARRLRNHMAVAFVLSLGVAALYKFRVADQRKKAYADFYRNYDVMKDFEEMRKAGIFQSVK
UniProt P24311, whole entry, looked up: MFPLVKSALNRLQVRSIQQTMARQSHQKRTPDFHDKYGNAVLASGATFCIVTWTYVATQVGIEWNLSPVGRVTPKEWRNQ
UniProt Q14061: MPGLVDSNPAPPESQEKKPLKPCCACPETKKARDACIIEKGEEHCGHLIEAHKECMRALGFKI
UniProt G9CGD6: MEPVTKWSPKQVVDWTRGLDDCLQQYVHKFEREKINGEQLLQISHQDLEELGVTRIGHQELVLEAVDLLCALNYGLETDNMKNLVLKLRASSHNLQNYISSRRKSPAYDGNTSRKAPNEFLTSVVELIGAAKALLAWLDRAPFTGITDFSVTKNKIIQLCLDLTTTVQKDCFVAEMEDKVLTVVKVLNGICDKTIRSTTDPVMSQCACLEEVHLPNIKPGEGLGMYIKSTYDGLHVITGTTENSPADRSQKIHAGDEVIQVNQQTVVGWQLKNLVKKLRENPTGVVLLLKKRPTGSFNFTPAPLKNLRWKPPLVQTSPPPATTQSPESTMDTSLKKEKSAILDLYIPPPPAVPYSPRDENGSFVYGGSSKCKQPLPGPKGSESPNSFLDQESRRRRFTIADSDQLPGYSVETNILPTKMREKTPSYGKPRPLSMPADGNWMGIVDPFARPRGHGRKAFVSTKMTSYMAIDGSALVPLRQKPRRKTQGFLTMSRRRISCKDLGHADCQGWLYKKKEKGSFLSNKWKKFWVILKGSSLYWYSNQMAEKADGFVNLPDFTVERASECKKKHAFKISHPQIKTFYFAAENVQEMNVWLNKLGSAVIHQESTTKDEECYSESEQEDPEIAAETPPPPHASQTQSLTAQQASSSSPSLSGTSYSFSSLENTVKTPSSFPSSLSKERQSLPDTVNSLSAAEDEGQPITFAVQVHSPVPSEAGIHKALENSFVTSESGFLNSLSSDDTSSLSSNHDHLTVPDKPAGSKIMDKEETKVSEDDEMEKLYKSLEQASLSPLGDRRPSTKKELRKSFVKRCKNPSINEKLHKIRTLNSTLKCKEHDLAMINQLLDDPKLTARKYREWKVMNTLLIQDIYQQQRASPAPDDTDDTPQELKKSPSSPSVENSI
UniProt Q8IWV2: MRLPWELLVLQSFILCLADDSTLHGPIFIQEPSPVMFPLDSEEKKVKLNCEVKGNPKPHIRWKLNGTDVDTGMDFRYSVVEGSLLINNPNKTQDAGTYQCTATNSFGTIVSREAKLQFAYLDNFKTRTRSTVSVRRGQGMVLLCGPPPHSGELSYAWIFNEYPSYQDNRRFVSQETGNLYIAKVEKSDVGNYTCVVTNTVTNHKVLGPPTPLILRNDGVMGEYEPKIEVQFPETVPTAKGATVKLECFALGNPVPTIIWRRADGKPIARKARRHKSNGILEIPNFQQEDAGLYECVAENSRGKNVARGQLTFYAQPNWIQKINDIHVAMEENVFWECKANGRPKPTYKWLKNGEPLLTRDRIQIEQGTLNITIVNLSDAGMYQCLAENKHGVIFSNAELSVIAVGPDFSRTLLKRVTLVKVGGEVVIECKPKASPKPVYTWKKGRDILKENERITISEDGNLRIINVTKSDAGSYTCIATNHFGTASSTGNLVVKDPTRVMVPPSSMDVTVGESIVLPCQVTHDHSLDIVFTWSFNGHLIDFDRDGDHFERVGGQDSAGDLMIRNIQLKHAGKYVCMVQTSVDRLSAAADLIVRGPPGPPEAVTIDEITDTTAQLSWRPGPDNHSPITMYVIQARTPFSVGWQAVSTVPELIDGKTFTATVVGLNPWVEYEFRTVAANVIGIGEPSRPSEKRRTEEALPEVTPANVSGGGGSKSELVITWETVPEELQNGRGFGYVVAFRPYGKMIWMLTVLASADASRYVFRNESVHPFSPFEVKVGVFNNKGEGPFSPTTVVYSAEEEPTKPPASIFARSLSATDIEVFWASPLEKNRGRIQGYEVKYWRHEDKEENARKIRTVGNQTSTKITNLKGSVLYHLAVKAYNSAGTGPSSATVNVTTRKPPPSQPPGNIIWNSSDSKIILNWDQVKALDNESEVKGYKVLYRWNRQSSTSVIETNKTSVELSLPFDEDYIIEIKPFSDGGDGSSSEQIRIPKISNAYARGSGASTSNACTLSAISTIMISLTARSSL
UniProt Q9NZJ6: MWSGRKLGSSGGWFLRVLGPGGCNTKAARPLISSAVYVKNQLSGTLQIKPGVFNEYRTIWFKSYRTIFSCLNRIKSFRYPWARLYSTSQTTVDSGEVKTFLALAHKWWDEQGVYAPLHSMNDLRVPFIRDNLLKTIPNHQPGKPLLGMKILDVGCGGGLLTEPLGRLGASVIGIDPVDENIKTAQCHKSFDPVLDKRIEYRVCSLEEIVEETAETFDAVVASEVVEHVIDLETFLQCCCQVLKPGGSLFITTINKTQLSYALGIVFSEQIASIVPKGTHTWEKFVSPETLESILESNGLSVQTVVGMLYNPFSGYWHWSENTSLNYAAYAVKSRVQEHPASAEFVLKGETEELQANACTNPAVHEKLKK
UniProt Q96FN4: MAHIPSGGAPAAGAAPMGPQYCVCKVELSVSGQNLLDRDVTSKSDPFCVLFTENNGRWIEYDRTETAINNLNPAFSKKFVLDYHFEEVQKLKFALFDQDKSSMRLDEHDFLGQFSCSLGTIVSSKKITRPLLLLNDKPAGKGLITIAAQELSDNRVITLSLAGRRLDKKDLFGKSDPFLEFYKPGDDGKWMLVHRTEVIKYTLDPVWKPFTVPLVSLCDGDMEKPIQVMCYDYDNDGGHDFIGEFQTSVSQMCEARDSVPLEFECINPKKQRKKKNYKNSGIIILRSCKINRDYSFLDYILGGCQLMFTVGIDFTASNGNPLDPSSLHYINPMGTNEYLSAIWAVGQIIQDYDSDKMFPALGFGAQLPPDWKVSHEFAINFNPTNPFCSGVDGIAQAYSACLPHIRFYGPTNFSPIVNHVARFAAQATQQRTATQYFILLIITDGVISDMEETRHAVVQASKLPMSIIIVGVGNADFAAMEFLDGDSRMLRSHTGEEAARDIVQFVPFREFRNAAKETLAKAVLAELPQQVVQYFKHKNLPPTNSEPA
UniProt Q9BT09: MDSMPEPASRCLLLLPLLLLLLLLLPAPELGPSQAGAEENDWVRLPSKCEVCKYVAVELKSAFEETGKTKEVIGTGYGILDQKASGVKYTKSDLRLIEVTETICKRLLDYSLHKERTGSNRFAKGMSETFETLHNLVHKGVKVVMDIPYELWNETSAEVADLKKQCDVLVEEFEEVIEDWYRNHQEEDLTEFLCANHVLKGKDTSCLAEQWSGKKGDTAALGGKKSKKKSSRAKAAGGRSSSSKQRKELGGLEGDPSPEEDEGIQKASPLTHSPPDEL
UniProt P14406, whole entry, looked up: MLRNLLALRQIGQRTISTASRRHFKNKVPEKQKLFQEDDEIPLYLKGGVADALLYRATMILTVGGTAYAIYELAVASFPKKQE

[2] = compound: CC1=C(SC2=C1C(=N[C@H](C3=NN=C(N32)C)CC(=O)N)C4=CC=C(C=C4)Cl)C
How it was run: as §1

[3] = compound: CC1=C2C(=CC=C1)N=C(N(C2=O)C3=CC=CC=C3C)CN4C=NC5=C(N=CN=C54)N
How it was run: as §1

[4] = compound: Cc1sc2c(c1C)C(c1ccc(Cl)cc1)=N[C@@H](CC(=O)OC(C)(C)C)c1nnc(C)n1-2
How it was run: as §1

[5] = compound: c1ccc([C@@H]2C[C@H]2NC2CCNCC2)cc1
How it was run: as §1

Measured: log2 fold change

COL6A5 (UniProt A8TX70)
inactive: [1] 0.025 | [2] 0.052 | [3] 0.089 | [4] -0.061 | [5] -0.545

CNNM1 (UniProt Q9NRU3)
inactive: [3] 0.003 | [4] 0.076

COQ5 (UniProt Q5HYK3)
inactive: [1] 0.074 | [2] 0.007 | [3] -0.027 | [4] -0.092 | [5] 0.027

COQ8B (UniProt Q96D53)
inactive: [5] 0.147

COX10 (UniProt Q12887)
inactive: [4] -0.169

COMMD10 (UniProt Q9Y6G5)
inactive: [1] 0.023 | [2] -0.043 | [3] -0.071 | [4] -0.03 | [5] 0.02

COP1 (UniProt Q8NHY2)
inactive: [4] 0.021 | [5] 0.128

COA7 (UniProt Q96BR5)
inactive: [1] 0.009 | [2] -0.042 | [3] -0.013 | [4] -0.001 | [5] -0.045

COX7C (UniProt P15954)
inactive: [1] -0.044 | [2] 0.09 | [3] 0.029 | [4] 0.127 | [5] 0.169

CRACR2B (UniProt Q8N4Y2)
inactive: [4] 0.057

COMMD3-BMI1 (UniProt R4GMX3)
inactive: [1] 0.11 | [2] -0.446 | [4] -0.126

COX7A2L (UniProt O14548)
inactive: [1] -0.073 | [2] -0.012 | [3] -0.038 | [4] -0.026 | [5] -0.059

COL1A1 (UniProt P02452)
inactive: [5] 0.145

COL6A3 (UniProt P12111)
inactive: [1] -0.008 | [2] -0.04 | [4] -0.079 | [5] 0.13

CPLX1 (UniProt O14810)
inactive: [3] -0.08 | [4] -0.239

COPA isoform 2 (UniProt P53621)
inactive: [1] 0.011 | [2] 0.015 | [3] 0.013 | [4] -0.017 | [5] 0.024

CNNM2 (UniProt Q9H8M5)
inactive: [3] 0.041 | [4] 0.034 | [5] 0.014

COX6C (UniProt P09669)
inactive: [1] -0.048 | [2] 0.036 | [3] -0.011 | [4] -0.009 | [5] -0.041

COX7B (UniProt P24311)
inactive: [3] -0.031 | [4] -0.027 | [5] -0.075

CPTP (UniProt Q5TA50)
inactive: [3] -0.098 | [4] -0.162 | [5] 0.146

CORO6 isoform 5 (UniProt Q6QEF8)
inactive: [1] -0.007 | [2] 0.083 | [5] 0.199

COX17 (UniProt Q14061)
inactive: [5] 0.122

CNK3/IPCEF1 isoform 2 (UniProt G9CGD6)
inactive: [3] -0.032 | [4] 0 | [5] -0.817

CNTROB isoform 2 (UniProt Q8N137)
inactive: [4] 0.08

COL6A1 (UniProt P12109)
inactive: [5] -0.014

CNTN4 (UniProt Q8IWV2)
inactive: [1] 0.046 | [2] 0.073 | [3] 0.105 | [5] -0.319

COQ3 (UniProt Q9NZJ6)
inactive: [1] 0.034 | [2] 0.025 | [3] -0.078 | [5] -0.048

Retrieved one by one from above (two):
CNTN4 (UniProt Q8IWV2)
inactive: [1] 0.046 | [2] 0.073 | [3] 0.105 | [5] -0.319

CNTROB isoform 2 (UniProt Q8N137)
inactive: [4] 0.08

Next records follow.

CNOT7 (UniProt H0YBT3)
inactive: [5] 0.122

CPNE2 (UniProt Q96FN4)
inactive: [1] -0.304 | [2] -0.236 | [4] -0.028 | [5] -0.035

CORO7 (UniProt P57737)
inactive: [3] 0.18 | [4] 0.165 | [5] 0.164

CNPY3 (UniProt Q9BT09)
inactive: [1] 0.019 | [2] -0.001 | [3] 0.004 | [4] -0.013 | [5] 0.041

COX7A2 (UniProt P14406)
inactive: [1] -0.072 | [2] 0.05 | [3] 0.029 | [5] -0.016

COPS2 (UniProt P61201)
inactive: [4] -0.039 | [5] 0.013

CNPY4 (UniProt Q8N129)
inactive: [1] -0.019 | [2] 0.071 | [3] 0.039 | [4] -0.028 | [5] -0.052

— the supplement of paper PMC10849652
